Results taken from PubChem BioAssay AID540276 (National Center for Advancing Translational Sciences (NCATS), 2011).
The whole screen tested about 300,000 compounds, of which about 5,400 (1.8%) were called active. Inconclusive means that the source gave no clear call. Such entries were picked first, then a sample of the others. Calls follow the shape of the full dose curve; tested in HEK293 cells. A potency beside an inconclusive call is a rough fit, not a confirmed value.

Assay: qHTS for inhibitors of binding or entry into cells for Marburg Virus
Conditions: Marburg virus pseudotyped entry inhibition, cell reporter; activity change, negative = inhibition: at 37.8 µM (top of the series) unless noted
% is scaled to controls: 0 for no effect and ±100 for the full control effect; potency is read from the fitted curve at half-maximal effect.

Row | Structure (SMILES) | Potency | activity change, negative = inhibition
1 | OC1CCN(c2c3c(nc4cc(-c5cccc(F)c5)nn24)CCCC3)CC1 | inconclusive: 29.1 µM [inhibitor, single point] | 
2 | Cc1c(C(=O)Nc2ccc(Cc3ccncc3)cc2)cccc1[N+](=O)[O-] | inconclusive: 35.5 µM [inhibitor, single point] | 
3 | O=C(OCc1nnc(-c2ccc([N+](=O)[O-])cc2)o1)c1ccc(F)c(S(=O)(=O)N2CCOCC2)c1 |  | inactive: 6.08% [at 46.1 µM]
4 | COc1ccc(C(=O)NCCn2cc(SCc3ccc(C(F)(F)F)cc3)c3ccccc32)cc1OC | inconclusive: 35.5 µM [inhibitor, single point] | 
5 | COc1cccc(CN=C2Nc3ccccc3CS2)c1 | inconclusive: 14.1 µM [activator, single point] | 
6 | CN(CC(=O)Nc1ccc(OC(F)(F)F)cc1)C(=O)c1ccccc1SCC(=O)N1CCCC1 |  | inactive: 0.239%
7 | O=C(c1ccc(Oc2ccc(C(F)(F)F)cn2)cc1)N1CCN(c2ccccc2)CC1 | inconclusive: 20.6 µM [inhibitor, partial curve, poor fit] | 
8 | O=C(c1ccccc1OCc1ccc(Cl)cc1)N1CCN(c2ccccn2)CC1 | inconclusive: 11.2 µM [inhibitor, single point] | 
9 | COc1ccc(N2C(=S)NC3c4cc(Cl)ccc4OC2(C)C3C(=O)N(C)C)cc1 (stereo unspecified) |  | inactive: -12.8% [at 46.1 µM]
10 | COc1ccccc1-c1nnc(NC(=O)c2ccc3ncsc3c2)o1 | inconclusive: 9.2 µM [inhibitor, partial curve, poor fit] | 
11 | CCOc1ccc(N(CC(=O)NC2CCCC2)C(=O)CCC(=O)Nc2nccs2)cc1 | inconclusive: 3.55 µM [activator, partial curve] | 
12 | Cc1ccc(-c2nnc(Nc3cccc(Cl)c3)c3ccccc23)cc1S(=O)(=O)N1CCN(C)CC1 | inconclusive: 5.62 µM [inhibitor, single point] | 
13 | CCCC12CN3CCN(CC(C3)/C1=N\NC(=O)c1ccccc1N)C2 | inconclusive: 3.66 µM [activator, full curve, poor fit] | 
14 | CC1CCCN(CCCN2C(=O)C3C(C(=O)Nc4ccc(Cl)cc4)C4C=CC3(O4)C2C(=O)NC2CCCCC2)C1 (stereo unspecified) | inconclusive: 15.8 µM [activator, single point] | 
15 | COc1cccc(Nc2nc(-c3ccccc3)nc3ccccc23)c1 | inconclusive: 35.5 µM [inhibitor, single point] | 
16 | Cc1cccc2cc(CN(Cc3cccs3)Cc3nnnn3Cc3ccccc3)c(=O)[nH]c12 | active: 16.4 µM | 
17 | Cc1cccc(C(=O)NC(=S)Nc2ccc(Cc3ccncc3)cc2)c1 |  | inactive: -14.5%
18 | Cc1ccc(C(=O)Nc2ccccc2Cl)cc1 | inconclusive: 3.98 µM [activator, single point] | 
19 | NC(=O)N/N=C/c1ccc2cccc(OCc3ccccc3)c2n1 |  | inactive: -7.64% [at 46.1 µM]
20 | Cn1c(Cn2cnc([N+](=O)[O-])n2)nnc1SCC(=O)Nc1cccc(Cl)c1 | inconclusive: 0.0731 µM [inhibitor, partial curve, poor fit] | 
21 | COc1ccc(S(=O)(=O)N2CCOCC2)cc1NC(=O)CSc1nnnn1C1CC1 |  | inactive: 11.9%
22 | CCOc1ccc(-n2cc(C(=O)N3CCC(C)CC3)c3cc(OC)c(OC)cc3c2=O)cc1 |  | inactive: -11.7%

Row | Structure (SMILES) | Potency | activity change, negative = inhibition
23 | CS(=O)(=O)N1CCC(c2noc(-c3ccc(C(F)(F)F)cc3)n2)CC1 | inconclusive: 6.31 µM [inhibitor, full curve, poor fit] | 
24 | CN(C)NC(=O)c1ccsc1NC(=O)c1ccc(S(=O)(=O)N2CCCC2)cc1 | inconclusive: 8.91 µM [inhibitor, partial curve, poor fit] | 
25 | CC1(C)CC(=O)C/C(=N\NC(=O)CCc2ccc(S(=O)(=O)N3CCOCC3)cc2)C1 | inconclusive: 3.16 µM [activator, single point] | 
26 | CCC(CC)NC(=O)c1cc(OC)c(OC)cc1[N+](=O)[O-] | inconclusive: 35.5 µM [activator, single point] | 
27 | Cc1cccc(C(=O)NCc2nnc3c4ccccc4c(-c4ccccc4)nn23)c1 | inconclusive: 35.5 µM [inhibitor, single point] | 
28 | O=C1CN(C(=O)COC(=O)c2ccccc2NCc2ccco2)c2ccccc2N1 | inconclusive: 35.5 µM [inhibitor, single point] | 
29 | O=C1OCCN1/N=C/c1ccc([N+](=O)[O-])o1 | inconclusive: 25.9 µM [activator, single point] | 
30 | CCOc1cc(NC(=O)C2CCCO2)c(OCC)cc1NC(=O)C1CC1 (stereo unspecified) |  | inactive: 6.23%
31 | Cc1cccc(CCNCc2cc3cccc(C)c3[nH]c2=O)c1 | inconclusive: 14.1 µM [inhibitor, partial curve, poor fit] | 
32 | Cc1ccc2nc(-c3ccc(N4C(=NC(=O)CCC(=O)O)SC5CS(=O)(=O)CC54)cc3)sc2c1 (stereo unspecified) | inconclusive: 6.31 µM [activator, single point] | 
33 | O=C(CCC1CCCN(C(=O)c2ccc3c(c2)OCO3)C1)N1CCN(c2ccccn2)CC1 (stereo unspecified) | inconclusive: 7.08 µM [inhibitor, partial curve, poor fit] | 
34 | COc1cc(C2C3=C(CC(c4ccco4)CC3=O)Nc3ccccc3N2C(C)=O)cc(OC)c1OC (stereo unspecified) | inactive | 
35 | Cc1ccc2cc3cc(C(=O)N4CCCCC4C)oc3nc2c1 (stereo unspecified) | inconclusive: 35.5 µM [inhibitor, single point] | 
36 | CC1CCCCN1CCCNC(=O)CN1C(=O)c2cccnc2Oc2ccc(Cl)cc21 (stereo unspecified) | inactive | 
37 | CCOC(=O)c1c(C)oc2cc(Br)c(OC(=O)N3CCOCC3)cc12 | inconclusive: 1.78 µM [inhibitor, single point] | 
38 | CC12CCC(O)CC1CCC1C2CCC2(C)C(C(=O)CC(O)C(F)(F)F)CCC12 (stereo unspecified) | inconclusive: 35.5 µM [inhibitor, single point] | 
39 | COc1ccc(CC(=O)NC(CC(=O)O)c2cccc([N+](=O)[O-])c2)cc1 (stereo unspecified) | inconclusive: 3.16 µM [activator, partial curve, poor fit] | 
40 | Cc1oc(C(C)(C)C)cc1C(=O)Nc1ccc(C(=O)O)cc1 | inconclusive: 12.6 µM [activator, single point] | 
41 | O=C(NCCN1C(=O)S/C(=C/c2ccccc2)C1=O)C1CCCN1C(=O)c1cccs1 (stereo unspecified) | inconclusive: 3.16 µM [activator, single point] | 
42 | Cc1c(NS(=O)(=O)c2ccccc2)c(=O)n(-c2ccccc2)n1C | inconclusive: 6.51 µM [activator, partial curve, poor fit] | 
43 | CC1CCCN(C(=O)CCCn2c(=S)[nH]c3ccccc3c2=O)C1 (stereo unspecified) |  | inactive: -20.5%
44 | CCOC(=O)c1sc(=S)n(-c2ccc(Cl)cc2)c1SC |  | inactive: 7.31%

From no. 10 to 11, copied from above:
Row | Structure (SMILES) | Potency | activity change, negative = inhibition
10 | COc1ccccc1-c1nnc(NC(=O)c2ccc3ncsc3c2)o1 | inconclusive: 9.2 µM [inhibitor, partial curve, poor fit] | 
11 | CCOc1ccc(N(CC(=O)NC2CCCC2)C(=O)CCC(=O)Nc2nccs2)cc1 | inconclusive: 3.55 µM [activator, partial curve] | 

Continued:

Row | Structure (SMILES) | Potency | activity change, negative = inhibition
45 | CCOc1cccc(CN(CC)CC2CCCN(CCc3cccc(OC)c3)C2)c1O (stereo unspecified) | inconclusive: 15.8 µM [inhibitor, partial curve, poor fit] | 
46 | N#Cc1cccc(N=c2ssnc2Cl)c1 |  | inactive: 2.19% [at 46.1 µM]
47 | COc1ccc(OCC(=O)Nc2cc(S(=O)(=O)N3CCCCC3)ccc2OC)cc1 |  | inactive: -8.97%
48 | Cc1ccc(NC(=O)Cc2nn(C)c(=O)c3ccccc23)cc1F | inconclusive: 7.08 µM [inhibitor, full curve, poor fit] | 
49 | CCc1ccc(NC(=O)c2cc(-c3ccc(OC)cc3)on2)cc1 |  | inactive: 5.43%
50 | C=CCCc1ccc(C#N)c(SCc2c(C(=O)OCC)c3cc(OC(C)=O)c(Br)cc3n2C)n1 | inconclusive: 35.5 µM [inhibitor, single point] | 
51 | COc1ccc(-c2cc(C(=O)N3CCCCC3C)no2)cc1OC (stereo unspecified) | inconclusive: 8.91 µM [activator, partial curve, poor fit] | 
52 | O=c1ccnc(Nc2ccc([N+](=O)[O-])cc2)[nH]1 | inconclusive: 35.5 µM [inhibitor, single point] | 
53 | COc1ccc(N2CCN(C(=O)CCc3nnc4ccc(N5CCOCC5)nn34)CC2)cc1 |  | inactive: 17.8% [at 46.1 µM]
54 | O=C(N1CCN(c2ccccn2)CC1)N1c2ccccc2Sc2ccccc21 | inconclusive: 14.6 µM [inhibitor, partial curve, poor fit] | 
55 | CCOC(=O)CNC(=O)Nc1cc(C(C)(C)C)nn1-c1ccccc1 |  | inactive: -1.69%
56 | Clc1ccc(-n2ncc3c(N4CCCC4)ncnc32)cc1 | inconclusive: 2.51 µM [inhibitor, partial curve, poor fit] | 
57 | O=C(NCN1C(=O)C2C3C=CC(C3)C2C1=O)Nc1ccccn1 (stereo unspecified) |  | inactive: 15.8%
58 | COc1ccc(CNC(=O)C2CCCN(Cc3nc(-c4cccc(C)c4)oc3C)C2)cc1 (stereo unspecified) | inconclusive: 16.4 µM [inhibitor, partial curve] | 
59 | Cc1ccc(-c2c3c(=O)n(C)c(=O)n(C)c3c3n2-c2ccccc2NC3c2ccc(C)cc2O)cc1 (stereo unspecified) | inconclusive: 10 µM [inhibitor, partial curve, poor fit] | 
60 | c1ccc2c(c1)[I+]c1ccccc1-2 | active: 0.282 µM | 
61 | COc1cccc(/C=N/Nc2snc(SC)c2C#N)c1O | inconclusive: 11.2 µM [inhibitor, partial curve, poor fit] | 
62 | CCc1ccccc1NC(=O)Cn1nc(CC)n2c(cc3sccc32)c1=O |  | inactive: 1.12% [at 46.1 µM]
63 | O=C(COc1ncnc2c(Cl)cc(Cl)cc12)N1CCN(S(=O)(=O)c2ccccc2)CC1 | inconclusive: 11.2 µM [activator, single point] | 
64 | Cc1ccc(C(=O)Nc2ccc3ccccc3c2)cc1 | inconclusive: 3.16 µM [inhibitor, full curve, poor fit] | 
65 | Cc1ccc(Cn2c(SCc3ccc(C(=O)N4CCCCC4)cc3)nc3ccncc32)cc1 | inconclusive: 35.5 µM [inhibitor, single point] | 
66 | CCC(=O)OC1=C(C(C)=O)N(Cc2ccccc2)S(=O)(=O)c2ccccc21 | inconclusive: 2.82 µM [activator, single point] | 
